Results taken from paper PMC7064488.
Results are given in words; binding and its absence hold for the method and conditions named. For some assays here: Binding seen in cells or lysates may run through a third protein. Some binding calls cover weakened binding; strength is not graded here. For some assays here: Where a sequence is shown, tags or fusion partners need not be part of it.

By UniProt entry, the sequences of proteins in these tests, tags left out.
UniProt Q00534: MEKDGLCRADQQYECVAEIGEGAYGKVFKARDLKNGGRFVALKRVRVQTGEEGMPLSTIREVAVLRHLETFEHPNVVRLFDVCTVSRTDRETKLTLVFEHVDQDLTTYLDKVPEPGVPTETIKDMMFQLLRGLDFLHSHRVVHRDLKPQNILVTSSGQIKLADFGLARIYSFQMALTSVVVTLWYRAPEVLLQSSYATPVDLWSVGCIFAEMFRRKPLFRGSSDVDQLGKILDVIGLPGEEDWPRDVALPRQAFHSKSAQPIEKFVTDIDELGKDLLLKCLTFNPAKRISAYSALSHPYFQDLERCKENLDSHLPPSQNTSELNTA
UniProt P11802: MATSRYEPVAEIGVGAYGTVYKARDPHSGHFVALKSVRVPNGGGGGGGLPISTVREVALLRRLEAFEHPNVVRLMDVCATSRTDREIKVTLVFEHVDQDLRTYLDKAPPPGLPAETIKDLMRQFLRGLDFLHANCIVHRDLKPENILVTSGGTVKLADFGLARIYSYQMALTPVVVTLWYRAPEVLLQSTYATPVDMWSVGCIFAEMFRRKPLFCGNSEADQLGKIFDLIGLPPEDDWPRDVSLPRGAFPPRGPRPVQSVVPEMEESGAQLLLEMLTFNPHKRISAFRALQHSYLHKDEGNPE

T1: zinc-finger E-box binding homeobox 1 (ZEB1), full-length (human (endogenous in MDA-MB-231 and SUM-159)) (UniProt P37275)
T1 sequence: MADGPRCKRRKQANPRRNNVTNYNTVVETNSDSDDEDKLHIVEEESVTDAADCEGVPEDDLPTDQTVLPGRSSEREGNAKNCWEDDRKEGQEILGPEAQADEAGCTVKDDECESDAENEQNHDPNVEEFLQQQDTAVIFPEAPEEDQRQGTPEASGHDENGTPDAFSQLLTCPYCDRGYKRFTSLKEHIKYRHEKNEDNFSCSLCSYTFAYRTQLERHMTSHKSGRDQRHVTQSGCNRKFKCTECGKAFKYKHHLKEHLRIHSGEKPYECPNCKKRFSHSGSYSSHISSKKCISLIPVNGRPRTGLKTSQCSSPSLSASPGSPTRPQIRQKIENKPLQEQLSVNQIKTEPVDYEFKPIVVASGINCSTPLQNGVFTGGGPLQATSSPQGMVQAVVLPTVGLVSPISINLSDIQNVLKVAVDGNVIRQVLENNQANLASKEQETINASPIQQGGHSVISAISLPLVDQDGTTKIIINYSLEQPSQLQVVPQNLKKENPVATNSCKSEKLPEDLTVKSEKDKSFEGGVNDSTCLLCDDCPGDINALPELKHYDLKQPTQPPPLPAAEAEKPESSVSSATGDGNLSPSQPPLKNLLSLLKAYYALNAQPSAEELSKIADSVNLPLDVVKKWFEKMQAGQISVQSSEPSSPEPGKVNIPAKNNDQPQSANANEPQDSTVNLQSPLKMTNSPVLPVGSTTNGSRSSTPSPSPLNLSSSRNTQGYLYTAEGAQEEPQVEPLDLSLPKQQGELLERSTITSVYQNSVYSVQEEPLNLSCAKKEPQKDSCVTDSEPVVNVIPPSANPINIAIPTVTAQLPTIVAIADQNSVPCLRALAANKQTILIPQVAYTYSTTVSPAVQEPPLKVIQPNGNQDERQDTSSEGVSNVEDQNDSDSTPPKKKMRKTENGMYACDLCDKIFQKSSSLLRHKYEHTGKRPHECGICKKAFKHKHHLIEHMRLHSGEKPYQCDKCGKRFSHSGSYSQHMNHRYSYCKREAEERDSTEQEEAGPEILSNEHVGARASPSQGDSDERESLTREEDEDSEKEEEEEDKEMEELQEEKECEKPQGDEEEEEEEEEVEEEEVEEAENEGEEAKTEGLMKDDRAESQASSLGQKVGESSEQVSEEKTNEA


Assays:
[1] = molecular target: T1, zinc-finger E-box binding homeobox 1 (ZEB1), full-length (human (endogenous in MDA-MB-231 and SUM-159)); assay: co-IP; MDA-MB-231 and SUM-159 cells lysed in RIPA buffer; lysate precleared, primary antibody or IgG at 4 °C overnight, protein G Dynabeads 4 h; western blotting
[2] = molecular target: CDK6 (human (endogenous in MDA-MB-231 and SUM-159)) (UniProt Q00534); assay: as above
[3] = molecular target: CDK4 (human (endogenous in MDA-MB-231 and SUM-159)) (UniProt P11802); assay: as above
[4] = molecular target: MBP-CDK4 (UniProt P11802); assay: pull-down; in vitro binding assay, cell-free: purified His-USP51 incubated with purified MBP fusion protein at 4 °C overnight; AmyloseResin beads; western blotting; both purified
[5] = molecular target: MBP-CDK6 (UniProt Q00534); assay: as above

Row | binding [1] | binding [2] | binding [3] | binding [4] | binding [5] | Binder
1 | binds | binds | binds |  |  | USP51 (enzyme, UniProt Q70EK9 1-711) MAQVRETSLPSGSGVRWISGGGGGASPEEAVEKAGKMEEAAAGATKASSRREAEEMKLEPLQEREPAPEENLTWSSSGGDEKVLPSIPLRCHSSSSPVCPRRKPRPRPQPRARSRSQPGLSAPPPPPARPPPPPPPPPPPAPRPRAWRGSRRRSRPGSRPQTRRSCSGDLDGSGDPGGLGDWLLEVEFGQGPTGCSHVESFKVGKNWQKNLRLIYQRFVWSGTPETRKRKAKSCICHVCSTHMNRLHSCLSCVFFGCFTEKHIHKHAETKQHHLAVDLYHGVIYCFMCKDYVYDKDIEQIAKETKEKILRLLTSTSTDVSHQQFMTSGFEDKQSTCETKEQEPKLVKPKKKRRKKSVYTVGLRGLINLGNTCFMNCIVQALTHIPLLKDFFLSDKHKCIMTSPSLCLVCEMSSLFHAMYSGSRTPHIPYKLLHLIWIHAEHLAGYRQQDAHEFLIAILDVLHRHSKDDSGGQEANNPNCCNCIIDQIFTGGLQSDVTCQACHSVSTTIDPCWDISLDLPGSCATFDSQNPERADSTVSRDDHIPGIPSLTDCLQWFTRPEHLGSSAKIKCNSCQSYQESTKQLTMKKLPIVACFHLKRFEHVGKQRRKINTFISFPLELDMTPFLASTKESRMKEGQPPTDCVPNENKYSLFAVINHHGTLESGHYTSFIRQQKDQWFSCDDAIITKATIEDLLYSEGYLLFYHKQGLEKD
2 |  |  |  | binds | binds | His-USP51 (enzyme, UniProt Q70EK9 1-711) MAQVRETSLPSGSGVRWISGGGGGASPEEAVEKAGKMEEAAAGATKASSRREAEEMKLEPLQEREPAPEENLTWSSSGGDEKVLPSIPLRCHSSSSPVCPRRKPRPRPQPRARSRSQPGLSAPPPPPARPPPPPPPPPPPAPRPRAWRGSRRRSRPGSRPQTRRSCSGDLDGSGDPGGLGDWLLEVEFGQGPTGCSHVESFKVGKNWQKNLRLIYQRFVWSGTPETRKRKAKSCICHVCSTHMNRLHSCLSCVFFGCFTEKHIHKHAETKQHHLAVDLYHGVIYCFMCKDYVYDKDIEQIAKETKEKILRLLTSTSTDVSHQQFMTSGFEDKQSTCETKEQEPKLVKPKKKRRKKSVYTVGLRGLINLGNTCFMNCIVQALTHIPLLKDFFLSDKHKCIMTSPSLCLVCEMSSLFHAMYSGSRTPHIPYKLLHLIWIHAEHLAGYRQQDAHEFLIAILDVLHRHSKDDSGGQEANNPNCCNCIIDQIFTGGLQSDVTCQACHSVSTTIDPCWDISLDLPGSCATFDSQNPERADSTVSRDDHIPGIPSLTDCLQWFTRPEHLGSSAKIKCNSCQSYQESTKQLTMKKLPIVACFHLKRFEHVGKQRRKINTFISFPLELDMTPFLASTKESRMKEGQPPTDCVPNENKYSLFAVINHHGTLESGHYTSFIRQQKDQWFSCDDAIITKATIEDLLYSEGYLLFYHKQGLEKD
